Assay results from doi:10.1101/2022.01.25.477656.
No constants are given. Whether binding was seen depends on the method and setting. In cells and extracts the contact can be indirect. Some entries that bind do so weakly or less than the wild type. Tags and fused reporters may be left off the sequences shown.

The chains behind the UniProt entries cited, without tags or fusion partners.
UniProt P22061: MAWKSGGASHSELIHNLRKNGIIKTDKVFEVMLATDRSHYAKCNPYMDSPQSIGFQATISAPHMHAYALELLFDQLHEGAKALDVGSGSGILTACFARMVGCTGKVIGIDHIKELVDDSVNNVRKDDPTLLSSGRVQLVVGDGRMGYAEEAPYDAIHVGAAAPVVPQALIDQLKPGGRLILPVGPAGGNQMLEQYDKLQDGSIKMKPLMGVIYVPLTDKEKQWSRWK

Target: T1, Flag-tagged TRAF2 (UniProt Q12933)
T1 sequence: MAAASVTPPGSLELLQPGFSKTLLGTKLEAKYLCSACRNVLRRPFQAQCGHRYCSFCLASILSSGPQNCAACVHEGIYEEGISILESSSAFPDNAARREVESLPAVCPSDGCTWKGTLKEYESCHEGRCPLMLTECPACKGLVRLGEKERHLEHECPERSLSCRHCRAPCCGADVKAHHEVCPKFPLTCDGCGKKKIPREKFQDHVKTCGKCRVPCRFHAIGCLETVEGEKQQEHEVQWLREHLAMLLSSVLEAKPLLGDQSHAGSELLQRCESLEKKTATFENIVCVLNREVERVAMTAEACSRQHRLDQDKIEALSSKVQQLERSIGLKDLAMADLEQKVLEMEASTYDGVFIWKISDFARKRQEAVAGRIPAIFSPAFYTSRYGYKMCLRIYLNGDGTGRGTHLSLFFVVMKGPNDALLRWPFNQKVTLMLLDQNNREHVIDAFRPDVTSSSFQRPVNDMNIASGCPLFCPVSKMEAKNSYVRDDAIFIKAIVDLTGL
Experiment: co-IP

Substance: Myc-tagged PIMT (protein L-isoaspartyl O-methyltransferase), wild type (from UniProt P22061 1-227) (enzyme)
- binding: binds weakly
